No constants are given. Whether binding was seen depends on the method and setting. In cells and extracts the contact can be indirect.
Biological target: T1, wild-type δ-adaptin expressed in mocha fibroblasts (in AP3) (UniProt O14617)
T1 sequence: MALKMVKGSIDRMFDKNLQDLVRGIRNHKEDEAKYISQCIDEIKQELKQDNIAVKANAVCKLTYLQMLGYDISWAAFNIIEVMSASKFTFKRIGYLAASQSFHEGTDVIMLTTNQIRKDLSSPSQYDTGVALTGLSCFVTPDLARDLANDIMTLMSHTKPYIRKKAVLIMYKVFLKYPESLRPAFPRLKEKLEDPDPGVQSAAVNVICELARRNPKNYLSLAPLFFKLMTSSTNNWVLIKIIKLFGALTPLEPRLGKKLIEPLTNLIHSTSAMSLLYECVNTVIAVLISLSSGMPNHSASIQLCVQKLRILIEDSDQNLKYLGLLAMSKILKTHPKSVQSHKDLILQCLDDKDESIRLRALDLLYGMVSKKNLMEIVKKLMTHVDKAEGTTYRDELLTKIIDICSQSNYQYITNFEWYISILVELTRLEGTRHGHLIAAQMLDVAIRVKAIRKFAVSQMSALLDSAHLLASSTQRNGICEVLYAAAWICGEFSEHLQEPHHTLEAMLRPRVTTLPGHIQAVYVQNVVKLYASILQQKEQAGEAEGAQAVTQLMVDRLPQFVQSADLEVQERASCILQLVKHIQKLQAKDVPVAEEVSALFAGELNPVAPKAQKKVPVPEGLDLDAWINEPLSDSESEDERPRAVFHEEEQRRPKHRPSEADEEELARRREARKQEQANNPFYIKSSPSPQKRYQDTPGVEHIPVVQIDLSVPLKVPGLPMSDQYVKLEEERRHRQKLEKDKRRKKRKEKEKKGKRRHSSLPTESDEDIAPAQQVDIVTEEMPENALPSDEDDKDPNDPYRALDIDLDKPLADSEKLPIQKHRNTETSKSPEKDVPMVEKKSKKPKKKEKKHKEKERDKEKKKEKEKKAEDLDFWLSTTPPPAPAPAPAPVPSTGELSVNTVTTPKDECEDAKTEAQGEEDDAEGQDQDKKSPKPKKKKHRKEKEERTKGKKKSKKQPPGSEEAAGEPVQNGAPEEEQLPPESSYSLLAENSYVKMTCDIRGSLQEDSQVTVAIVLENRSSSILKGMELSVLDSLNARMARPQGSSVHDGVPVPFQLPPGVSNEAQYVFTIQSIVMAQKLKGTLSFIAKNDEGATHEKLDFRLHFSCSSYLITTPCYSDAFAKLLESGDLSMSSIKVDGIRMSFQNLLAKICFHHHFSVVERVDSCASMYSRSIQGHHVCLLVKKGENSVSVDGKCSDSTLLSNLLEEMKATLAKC
Experiment: co-IP; native immunoprecipitation with antibodies to δ-adaptin from transduced mocha fibroblasts; immunoblotting; bands quantified with ImageJ

binding: no binding
B1: endogenous VAMP8 (protein, UniProt O70404 1-101)
chain: MEEASGSAGNDRVRNLQSEVEGVKNIMTQNVERILSRGENLDHLRNKTEDLEATSEHFKTTSQKVARKFWWKNVKMIVIICVIVLIIVILIILFATGTIPT

Reference: PMC3549491, “Structural Basis of the Intracellular Sorting of the SNARE VAMP7 by the AP3 Adaptor Complex” (Developmental Cell, 2012)
